## Cleaved PARP after 72 h of treatment

Source: doi:10.1371/journal.pone.0140310, primary screening data, rounded.

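Human melanoma cells were exposed to a pair of drugs for 72 h in 1,536-well plates and read by automated microscopy after fixing and staining. The read-out is the fraction of cleaved-PARP-positive nuclei, in % of that fraction in the DMSO control; 200 means twice the control level of this apoptosis marker. Concentrations were fixed for each drug; these are the higher of two levels. These are primary screening values without error estimates. Basal and induced levels differ widely between cell lines.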 This is part of the screen, not chosen by result.

First drug in all entries: L-779450, 1000 nM, Oc1cc(-c2nc(-c3ccccc3)[nH]c2-c2ccncc2)ccc1Cl

Compounds and concentrations:
GSK0660, 5000 nM: COC(=O)c1sccc1S(=O)(=O)Nc1ccc(Nc2ccccc2)cc1OC
IMD-0354, 80 nM: O=C(Nc1cc(C(F)(F)F)cc(C(F)(F)F)c1)c1cc(Cl)ccc1O
lenalidomide, 5000 nM: Nc1cccc2c1CN(C1CCC(=O)NC1=O)C2=O (stereo not shown)
STA-4783, 30 nM: CN(NC(=O)CC(=O)NN(C)C(=S)c1ccccc1)C(=S)c1ccccc1
GW441756, 2000 nM: Cn1cc(/C=C2\C(=O)Nc3cccnc32)c2ccccc21
XAV939, 10000 nM: Oc1nc(-c2ccc(C(F)(F)F)cc2)nc2c1CSCC2
tanespimycin, 10 nM: C=CCNC1=C2C[C@@H](C)C[C@H](OC)[C@H](O)[C@@H](C)/C=C(\C)[C@H](OC(N)=O)[C@@H](OC)/C=C\C=C(/C)C(=O)NC(=CC1=O)C2=O
OSI-906, 2000 nM: C[C@]1(O)C[C@@H](c2nc(-c3ccc4ccc(-c5ccccc5)nc4c3)c3c(N)nccn32)C1
docetaxel, 0.5 nM: CC(=O)O[C@@]12CO[C@@H]1C[C@H](O)[C@@]1(C)C(=O)[C@H](O)C3=C(C)[C@@H](OC(=O)[C@H](O)[C@@H](NC(=O)OC(C)(C)C)c4ccccc4)C[C@@](O)([C@@H](OC(=O)c4ccccc4)[C@H]21)C3(C)C
NVP-BEZ235, 20 nM: Cn1c(=O)n(-c2ccc(C(C)(C)C#N)cc2)c2c3cc(-c4cnc5ccccc5c4)ccc3ncc21
FK866, 50 nM: O=C(/C=C/c1cccnc1)NCCCCC1CCN(C(=O)c2ccccc2)CC1
selumetinib, 75 nM: Cn1cnc2c(F)c(Nc3ccc(Br)cc3Cl)c(C(=O)NOCCO)cc21
PF-562271, 400 nM: CN(c1ncccc1CNc1nc(Nc2ccc3c(c2)CC(=O)N3)ncc1C(F)(F)F)S(C)(=O)=O
AZD7762, 100 nM: NC(=O)Nc1cc(-c2cccc(F)c2)sc1C(=O)N[C@H]1CCCNC1
BMS-536924, 1000 nM: Cc1cc(N2CCOCC2)cc2[nH]c(-c3c(NC[C@@H](O)c4cccc(Cl)c4)cc[nH]c3=O)nc12
RKI-983, 2000 nM: C[C@@H](N)c1ccc(C(=O)Nc2ccnc3[nH]ccc23)cc1
JZL184, 5000 nM: O=C(Oc1ccc([N+](=O)[O-])cc1)N1CCC(C(O)(c2ccc3c(c2)OCO3)c2ccc3c(c2)OCO3)CC1
vincristine, 0.5 nM: CC[C@]1(O)C[C@H]2CN(CCc3c([nH]c4ccccc34)[C@@](C(=O)OC)(c3cc4c(cc3OC)N(C=O)[C@H]3[C@@](O)(C(=O)OC)[C@H](OC(C)=O)[C@]5(CC)C=CCN6CC[C@]43[C@@H]65)C2)C1
tipifarnib, 50 nM: Cn1cncc1[C@@](N)(c1ccc(Cl)cc1)c1ccc2c(c1)c(-c1cccc(Cl)c1)cc(=O)n2C
fludarabine, 1000 nM: Nc1nc(F)nc2c1ncn2[C@@H]1O[C@H](CO)[C@@H](O)[C@@H]1O
T0901317, 7000 nM: O=S(=O)(c1ccccc1)N(CC(F)(F)F)c1ccc(C(O)(C(F)(F)F)C(F)(F)F)cc1
Src-I1, 10000 nM: COc1cc2ncnc(Nc3ccc(Oc4ccccc4)cc3)c2cc1OC
CP-690550, 5000 nM: C[C@@H]1CCN(C(=O)CC#N)C[C@@H]1N(C)c1ncnc2[nH]ccc12

| Partner | WM1716 |
|---|---|
| tanespimycin | 197 |
| vincristine | 708 |
| docetaxel | 646 |
| CP-690550 | 196 |
| tipifarnib | 60.1 |
| PF-562271 | 86.3 |
| fludarabine | 196 |
| T0901317 | 145 |
| selumetinib | 186 |
| Src-I1 | 137 |
| lenalidomide | 139 |
| RKI-983 | 74.4 |
| XAV939 | 162 |
| BMS-536924 | 182 |
| AZD7762 | 263 |
| FK866 | 394 |
| JZL184 | 175 |
| NVP-BEZ235 | 295 |
| IMD-0354 | 404 |
| GW441756 | 86.7 |
| OSI-906 | 85.3 |
| STA-4783 | 299 |
| GSK0660 | 105 |

Once more, the final 2:

{"partner": "STA-4783", "WM1716": 299}
{"partner": "GSK0660", "WM1716": 105}